Amino acid sequences for entries named in this document (tags omitted).
UniProt Q9EPN1: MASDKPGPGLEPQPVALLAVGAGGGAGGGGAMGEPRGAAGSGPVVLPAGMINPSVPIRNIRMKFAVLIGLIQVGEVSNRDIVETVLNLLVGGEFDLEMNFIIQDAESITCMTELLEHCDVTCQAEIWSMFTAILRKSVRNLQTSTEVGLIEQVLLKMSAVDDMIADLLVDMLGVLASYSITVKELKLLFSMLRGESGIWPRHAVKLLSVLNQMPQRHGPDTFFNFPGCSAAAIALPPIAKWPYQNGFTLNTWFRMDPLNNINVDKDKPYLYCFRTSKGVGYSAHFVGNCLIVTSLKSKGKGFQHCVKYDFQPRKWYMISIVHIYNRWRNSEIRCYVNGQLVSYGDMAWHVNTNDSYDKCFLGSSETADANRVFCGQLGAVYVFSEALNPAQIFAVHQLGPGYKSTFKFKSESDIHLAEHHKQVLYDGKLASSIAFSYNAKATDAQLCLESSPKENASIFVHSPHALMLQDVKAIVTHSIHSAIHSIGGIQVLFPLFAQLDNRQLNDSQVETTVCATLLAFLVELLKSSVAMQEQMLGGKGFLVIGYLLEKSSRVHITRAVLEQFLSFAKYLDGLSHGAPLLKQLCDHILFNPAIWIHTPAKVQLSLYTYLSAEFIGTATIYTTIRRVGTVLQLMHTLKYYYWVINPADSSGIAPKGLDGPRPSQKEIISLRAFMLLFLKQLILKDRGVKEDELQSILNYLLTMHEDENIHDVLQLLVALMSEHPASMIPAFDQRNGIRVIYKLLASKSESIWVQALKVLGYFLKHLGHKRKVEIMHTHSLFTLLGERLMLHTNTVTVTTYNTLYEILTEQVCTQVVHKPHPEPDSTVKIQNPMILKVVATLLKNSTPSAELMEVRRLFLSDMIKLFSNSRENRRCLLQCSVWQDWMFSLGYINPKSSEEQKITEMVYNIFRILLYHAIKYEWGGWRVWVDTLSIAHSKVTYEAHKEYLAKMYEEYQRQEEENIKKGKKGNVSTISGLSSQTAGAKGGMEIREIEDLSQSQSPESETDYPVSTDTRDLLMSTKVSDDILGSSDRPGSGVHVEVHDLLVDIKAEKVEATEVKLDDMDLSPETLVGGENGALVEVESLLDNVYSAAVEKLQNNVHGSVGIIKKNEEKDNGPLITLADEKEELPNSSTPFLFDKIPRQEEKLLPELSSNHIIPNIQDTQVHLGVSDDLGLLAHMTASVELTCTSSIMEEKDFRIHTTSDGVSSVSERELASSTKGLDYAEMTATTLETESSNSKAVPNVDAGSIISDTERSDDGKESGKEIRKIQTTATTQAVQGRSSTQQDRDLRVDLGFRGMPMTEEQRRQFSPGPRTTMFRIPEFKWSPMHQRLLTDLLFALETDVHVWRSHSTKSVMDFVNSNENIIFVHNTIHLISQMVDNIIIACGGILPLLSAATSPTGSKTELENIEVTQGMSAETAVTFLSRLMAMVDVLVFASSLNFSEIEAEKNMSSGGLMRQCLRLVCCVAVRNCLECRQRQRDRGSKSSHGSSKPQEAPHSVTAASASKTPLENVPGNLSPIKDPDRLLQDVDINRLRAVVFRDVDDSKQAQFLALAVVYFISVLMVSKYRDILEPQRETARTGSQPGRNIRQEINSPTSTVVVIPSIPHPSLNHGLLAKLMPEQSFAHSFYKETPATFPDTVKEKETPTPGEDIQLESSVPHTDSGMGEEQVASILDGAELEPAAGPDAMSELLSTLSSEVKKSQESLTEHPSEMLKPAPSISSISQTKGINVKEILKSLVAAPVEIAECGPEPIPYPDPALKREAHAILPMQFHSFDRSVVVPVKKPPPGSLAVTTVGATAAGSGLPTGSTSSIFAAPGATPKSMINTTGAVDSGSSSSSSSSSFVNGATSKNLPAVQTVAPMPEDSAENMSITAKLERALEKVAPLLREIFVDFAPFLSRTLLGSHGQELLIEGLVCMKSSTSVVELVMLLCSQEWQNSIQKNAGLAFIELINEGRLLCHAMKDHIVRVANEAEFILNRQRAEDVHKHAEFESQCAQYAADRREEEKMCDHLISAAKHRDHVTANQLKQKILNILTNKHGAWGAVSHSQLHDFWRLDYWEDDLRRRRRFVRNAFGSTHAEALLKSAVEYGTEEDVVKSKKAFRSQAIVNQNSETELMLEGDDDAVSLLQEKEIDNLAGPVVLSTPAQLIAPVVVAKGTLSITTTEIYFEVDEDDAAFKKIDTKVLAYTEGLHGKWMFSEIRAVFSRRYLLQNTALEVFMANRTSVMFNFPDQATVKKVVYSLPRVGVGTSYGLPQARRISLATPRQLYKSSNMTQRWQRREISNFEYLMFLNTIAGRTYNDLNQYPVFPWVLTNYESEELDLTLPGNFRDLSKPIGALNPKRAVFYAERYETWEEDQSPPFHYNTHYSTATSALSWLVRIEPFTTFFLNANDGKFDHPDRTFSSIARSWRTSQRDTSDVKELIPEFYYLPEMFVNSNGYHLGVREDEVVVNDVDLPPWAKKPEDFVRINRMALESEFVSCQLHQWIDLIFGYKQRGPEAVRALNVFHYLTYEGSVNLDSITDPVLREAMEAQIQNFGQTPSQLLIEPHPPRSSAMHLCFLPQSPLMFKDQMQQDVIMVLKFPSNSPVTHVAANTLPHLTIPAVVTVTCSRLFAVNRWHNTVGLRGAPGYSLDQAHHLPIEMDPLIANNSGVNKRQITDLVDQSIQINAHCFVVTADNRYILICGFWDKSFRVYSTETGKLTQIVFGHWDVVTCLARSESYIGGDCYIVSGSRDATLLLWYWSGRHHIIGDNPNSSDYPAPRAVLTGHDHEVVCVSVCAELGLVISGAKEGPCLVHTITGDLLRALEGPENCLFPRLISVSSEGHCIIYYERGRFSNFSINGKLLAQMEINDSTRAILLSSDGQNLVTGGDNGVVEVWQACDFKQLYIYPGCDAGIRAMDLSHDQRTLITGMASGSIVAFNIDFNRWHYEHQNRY
UniProt Q9Z218: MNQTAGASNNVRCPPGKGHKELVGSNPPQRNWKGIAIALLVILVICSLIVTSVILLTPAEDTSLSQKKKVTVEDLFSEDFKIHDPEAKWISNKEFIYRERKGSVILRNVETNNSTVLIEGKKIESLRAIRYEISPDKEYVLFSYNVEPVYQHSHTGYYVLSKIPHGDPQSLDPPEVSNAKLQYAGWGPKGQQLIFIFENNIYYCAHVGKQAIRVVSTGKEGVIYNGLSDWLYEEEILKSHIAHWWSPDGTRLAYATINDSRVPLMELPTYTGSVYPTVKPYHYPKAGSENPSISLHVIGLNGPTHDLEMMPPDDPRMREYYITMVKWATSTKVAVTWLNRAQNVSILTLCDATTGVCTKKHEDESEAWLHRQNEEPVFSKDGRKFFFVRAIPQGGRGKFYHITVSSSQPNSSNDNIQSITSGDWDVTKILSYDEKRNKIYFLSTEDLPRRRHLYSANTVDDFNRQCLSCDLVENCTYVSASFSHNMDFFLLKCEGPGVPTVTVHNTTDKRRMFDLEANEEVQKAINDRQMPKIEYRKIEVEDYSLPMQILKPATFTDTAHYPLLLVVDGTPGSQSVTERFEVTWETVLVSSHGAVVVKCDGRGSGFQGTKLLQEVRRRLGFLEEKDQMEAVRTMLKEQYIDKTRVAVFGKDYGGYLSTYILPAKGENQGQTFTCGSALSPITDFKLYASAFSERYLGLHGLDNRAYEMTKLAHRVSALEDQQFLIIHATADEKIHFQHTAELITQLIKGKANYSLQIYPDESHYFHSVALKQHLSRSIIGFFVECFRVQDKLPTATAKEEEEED
UniProt Q05BC3: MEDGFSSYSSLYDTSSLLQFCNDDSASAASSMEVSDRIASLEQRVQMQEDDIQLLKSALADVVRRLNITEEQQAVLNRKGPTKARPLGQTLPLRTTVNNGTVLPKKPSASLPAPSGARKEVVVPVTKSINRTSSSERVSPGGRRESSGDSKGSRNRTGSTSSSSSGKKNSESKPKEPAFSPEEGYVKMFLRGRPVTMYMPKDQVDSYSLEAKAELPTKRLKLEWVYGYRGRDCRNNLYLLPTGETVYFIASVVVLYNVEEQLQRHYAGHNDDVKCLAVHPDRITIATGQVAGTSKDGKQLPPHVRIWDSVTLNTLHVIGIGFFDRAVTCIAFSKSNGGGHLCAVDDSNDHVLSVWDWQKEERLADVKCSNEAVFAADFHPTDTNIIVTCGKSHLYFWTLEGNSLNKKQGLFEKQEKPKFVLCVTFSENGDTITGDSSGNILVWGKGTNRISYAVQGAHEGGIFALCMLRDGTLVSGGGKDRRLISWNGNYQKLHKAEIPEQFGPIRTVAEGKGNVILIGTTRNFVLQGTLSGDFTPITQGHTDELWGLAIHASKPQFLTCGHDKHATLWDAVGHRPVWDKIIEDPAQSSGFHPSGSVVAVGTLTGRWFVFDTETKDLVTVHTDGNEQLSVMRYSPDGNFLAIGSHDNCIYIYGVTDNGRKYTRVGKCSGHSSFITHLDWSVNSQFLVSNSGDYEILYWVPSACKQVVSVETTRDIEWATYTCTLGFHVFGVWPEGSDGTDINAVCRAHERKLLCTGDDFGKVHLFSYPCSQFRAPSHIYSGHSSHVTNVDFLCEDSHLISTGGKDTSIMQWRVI

According to PMC3380004:

B1: Echinoderm microtubule-associated protein like 2 (protein, UniProt Q7TNG5 1-649)
chain: MSSFGIGKTKEVIFSMEEGSVKMFLRGRPVPMLIPDELAPTYSLDTRSELPSSRLKLDWVYGYRGRDCRANLYLLPTGEVVYFVASVAVLYSVEEQRQRHYLGHNDDIKCLAVHPDMVTIATGQVAGTTKEGKPLPPHVRVWDSVSLSTLHVLGLGVFDRAVCCVAFSKSNGGNLLCAVDESNDHVLSVWDWAKESKVVDSKCSNEAVLVATFHPTDPSLLITCGKSHIYFWSLEGGSLSKRQGLFEKHEKPKYVLCVTFLEGGDVVTGDSGGNLYVWGKGGNRITQEVQGAHDGGVFALCALRDGTLVSGGGRDRRVVLWGSDYSKVQEVEVPEDFGPVRTVAEGRGDTLYVGTTRNSILLGSVHTGFSLLVQGHVEELWGLATHPSRAQFVTCGQDKLVHLWSSETHQPVWSRSIEDPARSAGFHPSGSVLAVGTVTGRWLLLDTETHDLVAIHTDGNEQISVVSFSPDGAYLAVGSHDNLVYVYTVDQGGRKVSRLGKCSGHSSFITHLDWAQDSTCFVTNSGDYEILYWDPVTCKQITSADTVRNVEWATATCVLGFGVFGIWPEGADGTDINAVARSHDGKLLVSADDFGKVHLFSYPCCQPRALSHKYGGHSSHVTNVAFLWDDSMALTTGGKDTSVLQWRVA
B2: Discs large homolog 3, Synapse-associated protein 102 (protein, UniProt P70175 1-849)
chain: MHKHQHCCKCPECYEVTRLAALRRLEPPGYGDWQVPDPYGPSGGNGASSGYGGYSSQTLPSQAGATPTPRTKAKLIPTGRDVGPVPPKPVPGKSTPKLNGSGPGWWPECTCTNRDWYEQASPAPLLVNPEALEPSLSVNGSDGMFKYEEIVLERGNSGLGFSIAGGIDNPHVPDDPGIFITKIIPGGAAAMDGRLGVNDCVLRVNEVDVSEVVHSRAVEALKEAGPVVRLVVRRRQPPPETIMEVNLLKGPKGLGFSIAGGIGNQHIPGDNSIYITKIIEGGAAQKDGRLQIGDRLLAVNNTNLQDVRHEEAVASLKNTSDMVYLKVAKPGSIHLNDMYAPPDYASTFTALADNHISHNSSLGYLGAVESKVTYPAPPQVPPTRYSPIPRHMLAEEDFTREPRKIILHKGSTGLGFNIVGGEDGEGIFVSFILAGGPADLSGELRRGDRILSVNGVNLRNATHEQAAAALKRAGQSVTIVAQYRPEEYSRFESKIHDLREQMMNSSMSSGSGSLRTSEKRSLYVRALFDYDRTRDSCLPSQGLSFSYGDILHVINASDDEWWQARLVTPHGESEQIGVIPSKKRVEKKERARLKTVKFHARTGMIESNRDFPGLSDDYYGAKNLKGVTSNTSDSESSSKGQEDAILSYEPVTRQEIHYARPVIILGPMKDRVNDDLISEFPHKFGSCVPHTTRPRRDNEVDGQDYHFVVSREQMEKDIQDNKFIEAGQFNDNLYGTSIQSVRAVAERGKHCILDVSGNAIKRLQQAQLYPIAIFIKPKSIEALMEMNRRQTYEQANKIFDKAMKLEQEFGEYFTAIVQGDSLEEIYNKIKQIIEDQSGHYIWVPSPEKL
B3: TBC1 domain family member 5 (protein, UniProt Q80XQ2 1-815)
chain: MYKSVSETRHPLQSEEQEVGIDPLFSYSNKTRGDLSQNGRGSNSTLDTEGTFNSYMKEWEELFVNNNYLATVRQKGINGQLRSSRFRSICWKLFLCVLPQDKSQWISKIKELRAWYSSIKEIHITNPRKAAGQQDLMINNPLSQDEGSLWNKFFQDKELRSMIEQDVKRTFPEMQFFQQENVRKILTDVLFCYARENEQLLYKQGMHELLAPIIFTLHCDHQAFLHASESAQPSEEMKTLLNPEYLEHDAYAMFSQLMETAEPWFSTFEHDGQKGKETLMAPIPFARPQDLGPTVAIVTKVNQIQDHLLKKHDIELYMHLNRLEIAPQIYGLRWVRLLFGREFPLQDLLVVWDALFADSLNLSLVDYVFTAMLLYIRDALISSNYQTCLGLLMHYPIIGDIHSLILKALFLRDPKRNPRPATYQFHPNLDYYKARGADLMNKSRTNARGAPLNIHKVSNSLINFGRKLISPASAPGSMGGPVPGNNSSSSFSAAIPTRTSTEAPRHHLLQQQQQQQHQQQQQQQPQQQQQQHQQQQQQQRLMKSESMPVQLNKGQSSKTISSSPSIESLPGGREFTGSPPPSATKKDSFFSNIARSRSHSKTMGRKESEEELEAQISFLQGQLNDLDAMCKYCAKVMDMHLVNIQDVVLQENLEKEDQILVSLAGLKQIKDILKGSLRFNQSQLEAGENEQITIADDHYCSSGQDQGSQVPRAAKQASSEMPGCTGGTTPDDFILVSKEDEGHRARGAFSGQAQPLLTLRSTSGKSRAPACSPLLFSDPLMGPASASASSSNPSSSPDDDSSKESGFTIVSPLDI
B4: Echinoderm microtubule-associated protein like 4 (protein, UniProt Q3UMY5 1-988)
chain: MDGFAGSLDDSISAASTSDVQDRLSALESRVQQQEDEITVLKAALADVLRRLAISEDHVASVKKSMPSKGQPSLREAISMSCITNGSGISRKQNHTSSVSIARKETLSSAAKSGTEKKKEKPQGQREKKEDSHSNDQSPQIRASPSPQPSSQPLQINRQTPESKSSAPIKSIKRPPTAEKSHNSWENSDDSRNKLMKTVSTSKLISKVIKNADKHKDVIVNQAKMSTREKNSQEGEYIKMFMRGRPITMFIPSDVDNYDDIRTELPPEKLKLEWVYGYRGKDCRANVYLLPTGEIVYFIASVVVLFNYEERTQRHYLGHTDCVRCLAVHPDKIRIATGQIAGVDKDGRPLQPHVRVWDSVSLTTLHVIGLGTFERGVGCLDFSKADSGVHLCVIDDSNEHMLTVWDWQKKSKIAEIKTTNEVVLAVEFHPTDANTIITCGKSHIFFWTWSGNSLTRKQGIFGKYEKPKFVQCLAFLGNGDVLTGDSGGVMLIWSKTMVEPPPGKGPKGVYQINRQIKAHDGSVFTLCQMRNGMLLTGGGKDRKIILWDHDLNLEREIEVPDQYGTIRAVAEGRAEQFLVGTSRNFILRGTFNDGFQIEVQGHRDELWGLATHPFKDLLLTCAQDRQVCMWNSVEHRLEWTRLVDEPGHCADFHPSGTVVAIGTHSGRWFVLDAETRDLVSIHTDGNEQLSVMRYSVDGTLLAVGSHDNFIYLYTVLENGRKYSRYGKCTGHSSYITHLDWSPDNKHIMSNSGDYEILYWDIENGCKLIRNRSDCKDIDWTTYTCVLGFQVFGVWPEGSDGTDINALVRSHNRRVIAVADDFCKVHLFQYPCSKAKAPSHKYSAHSSHVTNVSFTHNDSHLISTGGKDMSIIQWKLVEKLPVPQNEVITDASVTKTPASSSETARPSNSPPLPPSLPLTGTAEEESRMGSSPTLVENSLEQIAEPSEEQSEWGSEDLGVVIDEEPASELSETQGATELPEEERGITPLC
B5: Complement component 1Q subcomponent-binding protein, mitochondrial (protein, UniProt O35658 71-278)
chain: LHTEGDKAFVEFLTDEIKEEKKIQKHKSLPKMSGDWELEVNGTEAKLLRKVAGEKITVTFNINNSIPPTFDGEEEPSQGQKAEEQEPERTSTPNFVVEVTKTDGKKTLVLDCHYPEDEIGHEDEAESDIFSIKEVSFQATGDSEWRDTNYTLNTDSLDWALYDHLMDFLADRGVDNTFADELVELSTALEHQEYITFLEDLKSFVKNQ

Legend:
[1] = target: Neurobeachin (mouse (endogenous in mouse brain)) (UniProt Q9EPN1); assay: affinity purification with mass spectrometry; IP with α-Nbea antibody from E18 mouse brain homogenates solubilised with 1% Triton X-100, protein A/G agarose, 4°C; controls: Nbea KO brain, pre-immune serum, empty beads; SDS-PAGE, trypsin, LTQ-Orbitrap
[2] = target: Neurobeachin (mouse (endogenous in mouse brain)) (UniProt Q9EPN1); assay: affinity purification with mass spectrometry; IP with α-Nbea antibody from the P2+microsomes fraction of P84 mouse brain solubilised with 1% n-Dodecyl β-D-maltoside (DDM), protein A/G agarose, 4°C; controls: empty beads, E18 KO IP; LTQ-Orbitrap

Row | Molecule | binding [1] | binding [2]
1 | Dipeptidyl aminopeptidase-like protein 6 (from UniProt Q9Z218 1-804) | binds | binds
2 | Echinoderm microtubule-associated protein like 1 (from UniProt Q05BC3 1-814) | binds | –
3 | Lipopolysaccharide-responsive and beige-like anchor protein (from UniProt Q9ESE1 1-2856) | binds | –
4 | B1 | binds | binds
5 | B2 | binds | binds
6 | B3 | – | binds
7 | B4 | binds | –
8 | B5 | – | binds

No constants are given. Whether binding was seen depends on the method and setting. In cells and extracts the contact can be indirect. These calls come from enrichment with a bait or labelling near it, and not all partners need be listed.
